The results in this text go back to PMC7926355.

The chains behind the UniProt entries cited, without tags or fusion partners.
UniProt A1A766: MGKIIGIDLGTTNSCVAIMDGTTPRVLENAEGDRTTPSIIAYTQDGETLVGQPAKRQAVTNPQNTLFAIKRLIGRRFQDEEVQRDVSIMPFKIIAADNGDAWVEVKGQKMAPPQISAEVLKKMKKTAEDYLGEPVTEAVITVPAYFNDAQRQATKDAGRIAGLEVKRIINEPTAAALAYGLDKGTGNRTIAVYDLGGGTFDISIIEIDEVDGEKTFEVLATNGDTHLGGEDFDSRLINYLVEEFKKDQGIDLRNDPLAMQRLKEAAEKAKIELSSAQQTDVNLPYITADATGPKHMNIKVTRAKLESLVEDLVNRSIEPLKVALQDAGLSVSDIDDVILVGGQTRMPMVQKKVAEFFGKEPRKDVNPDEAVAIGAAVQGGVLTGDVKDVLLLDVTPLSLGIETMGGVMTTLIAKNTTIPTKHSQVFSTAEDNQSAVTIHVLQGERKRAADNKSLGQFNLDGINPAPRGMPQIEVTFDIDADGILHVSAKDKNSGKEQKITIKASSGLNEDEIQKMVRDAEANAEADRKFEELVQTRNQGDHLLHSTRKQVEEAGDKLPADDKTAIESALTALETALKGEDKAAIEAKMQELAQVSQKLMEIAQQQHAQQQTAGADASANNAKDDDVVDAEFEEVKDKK
UniProt Q8ILC1: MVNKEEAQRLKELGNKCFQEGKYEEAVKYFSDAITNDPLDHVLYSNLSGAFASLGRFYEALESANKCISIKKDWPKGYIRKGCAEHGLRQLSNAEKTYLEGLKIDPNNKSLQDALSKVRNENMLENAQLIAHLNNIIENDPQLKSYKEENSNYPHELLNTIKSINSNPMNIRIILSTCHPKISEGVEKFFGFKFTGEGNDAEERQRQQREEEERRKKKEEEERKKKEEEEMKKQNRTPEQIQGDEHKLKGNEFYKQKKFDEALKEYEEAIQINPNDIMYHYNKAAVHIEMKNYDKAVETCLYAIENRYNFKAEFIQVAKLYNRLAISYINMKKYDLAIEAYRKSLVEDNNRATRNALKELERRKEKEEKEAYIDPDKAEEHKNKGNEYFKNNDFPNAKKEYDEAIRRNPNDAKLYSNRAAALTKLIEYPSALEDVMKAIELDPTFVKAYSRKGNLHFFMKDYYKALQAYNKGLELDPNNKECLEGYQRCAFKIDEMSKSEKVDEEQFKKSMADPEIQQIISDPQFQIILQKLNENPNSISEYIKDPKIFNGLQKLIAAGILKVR

These are yes or no findings as the source states them, for the method shown.

The target in assay [1] is E. coli DnaK (E. coli Hsp70), wild type (E. coli) (UniProt A1A766). Kind of assay: ELISA; both purified.
For assay [2] the target is unchanged. Kind of assay: far-Western, overlay or dot blot; both purified.

For the substance “Plasmodium falciparum Hsp70-Hsp90 organising protein (PfHop) (from UniProt Q8ILC1 1-564)”, the figures for the binding entry in assay [1] and in assay [2] were “no binding (tested: 0–0.5 μg PfHop)” and “no binding (tested: 4 μg of purified PfHop)”, respectively.
